Results as given in patent US20250107528A1, “PYRAZINE COMPOUNDS FOR THE CONTROL OF INVERTEBRATE PESTS” (BASF SE, priority 2021, published 2025).
Some results were stated once for a whole list of compounds, not compound by compound.

Assays:
Type in all cases: in vivo
Anthonomus grandis = test: Boll weevil (Anthonomus grandis) egg/larval test on insect diet in 96-well microtiter plates; details: 2500 ppm; egg and larval mortality; 5 days
Heliothis virescens = test: Tobacco budworm (Heliothis virescens) egg/larval test on insect diet in 96-well microtiter plates; details: 2500 ppm; egg and larval mortality; 5 days
Myzus persicae = test: Green peach aphid (Myzus persicae) systemic test, artificial diet in 96-well microtiter plates; details: 2500 ppm; adult aphids on treated artificial diet; 3 days
Procedure: If not otherwise specified, the test solutions were prepared as follow:
The active compound was dissolved at the desired concentration in a mixture of 1:1 (vol:vol) distilled water:acetone. The test solution was prepared on the day of use.
B.1 Green Peach Aphid (Myzus persicae)
For evaluating control of green peach aphid (Myzus persicae) through systemic means, the test unit consisted of 96-well-microtiter plates containing liquid artificial diet under an artificial mem brane.
The compounds were formulated using a solution containing 75% v/v water and 25% v/v DMSO. Different concentrations of formulated compounds were pipetted into the aphid diet, using a custom built pipetter, at two replications.
After application, 5-8 adult aphids were placed on the artificial membrane inside the microtiter plate wells. The aphids were then allowed to suck on the treated aphid diet and incubated at about 23±1° C. and about 50±5% relative humidity for 3 days. Aphid mortality and fecundity was then visually assessed.

Spodoptera eridania = test: Southern armyworm (Spodoptera eridania), 2nd instar larvae, foliar spray on lima bean plants; details: 300 ppm; 2nd instar larvae on sprayed lima bean; 4 days after treatment
Aedes aegypti = details: 2500 ppm; larval mortality; 2 days

Measured: mortality in comparison with untreated controls

CC(=NO)c1nccnc1C(C)NC(=O)c1cc(C(F)(F)F)cc(C(F)(F)F)c1 (stereo not drawn) [I-12]
at least 75%: Anthonomus grandis | Heliothis virescens | Myzus persicae | Spodoptera eridania | Aedes aegypti

CON=Cc1nccnc1C(C)NC(=O)c1cc(C(F)(F)F)cc(C(F)(F)F)c1 (stereo not drawn) [I-13]
at least 75%: Anthonomus grandis | Heliothis virescens | Myzus persicae | Spodoptera eridania | Aedes aegypti

CC(NC(=O)c1cc(C(F)(F)F)cc(C(F)(F)F)c1)c1nccnc1C=NO (stereo not drawn) [I-14]
at least 75%: Anthonomus grandis | Heliothis virescens | Myzus persicae | Spodoptera eridania | Aedes aegypti

CNC(=O)NN=Cc1nccnc1C(C)NC(=O)c1cc(C(F)(F)F)cc(C(F)(F)F)c1 (stereo not drawn) [I-15]
at least 75%: Anthonomus grandis | Heliothis virescens | Myzus persicae | Spodoptera eridania | Aedes aegypti

CON=C(C)c1nccnc1C(C)NC(=O)c1cc(OC(F)F)cc(C(F)(F)F)c1 (stereo not drawn) [I-19]
at least 75%: Anthonomus grandis | Heliothis virescens | Myzus persicae | Spodoptera eridania | Aedes aegypti

CCNC(=O)N(C)N=Cc1nccnc1C(C)NC(=O)c1cc(C(F)(F)F)cc(C(F)(F)F)c1 (stereo not drawn) [I-21]
at least 75%: Anthonomus grandis | Heliothis virescens | Myzus persicae | Spodoptera eridania | Aedes aegypti

CON=C(N)c1nccnc1C(C)NC(=O)c1cc(C(F)(F)F)nc(C2(C#N)CC2)c1 (stereo not drawn) [I-83]
at least 75%: Anthonomus grandis | Heliothis virescens | Myzus persicae | Spodoptera eridania | Aedes aegypti

CC(=NNC(=O)NCc1ccncn1)c1nccnc1C(C)NC(=O)c1cc(C(F)(F)F)cc(C(F)(F)F)c1 (stereo not drawn) [I-93]
at least 75%: Anthonomus grandis | Heliothis virescens | Myzus persicae | Spodoptera eridania | Aedes aegypti

CC(NC(=O)c1cc(C(F)(F)F)cc(C(F)(F)F)c1)c1nccnc1C=Nn1cnn(C)c1=O (stereo not drawn) [I-120]
at least 75%: Anthonomus grandis | Heliothis virescens | Myzus persicae | Spodoptera eridania | Aedes aegypti

CC(NC(=O)c1cc(C(F)(F)F)cc(C(F)(F)F)c1)c1nccnc1C=NN1CC(=O)N(C)C1=O (stereo not drawn) [I-121]
at least 75%: Anthonomus grandis | Heliothis virescens | Myzus persicae | Spodoptera eridania | Aedes aegypti

CNC(=O)N(N=Cc1nccnc1C(C)NC(=O)c1cc(C(F)(F)F)cc(C(F)(F)F)c1)c1ccccc1 (stereo not drawn) [I-123]
at least 75%: Anthonomus grandis | Heliothis virescens | Myzus persicae | Spodoptera eridania | Aedes aegypti

CC(C)NC(=O)N(C)N=Cc1nccnc1C(C)NC(=O)c1cc(C(F)(F)F)cc(C(F)(F)F)c1 (stereo not drawn) [I-127]
at least 75%: Anthonomus grandis | Heliothis virescens | Myzus persicae | Spodoptera eridania | Aedes aegypti

CCn1ncn(N=Cc2nccnc2C(C)NC(=O)c2cc(C(F)(F)F)cc(C(F)(F)F)c2)c1=O (stereo not drawn) [I-130]
at least 75%: Anthonomus grandis | Heliothis virescens | Myzus persicae | Spodoptera eridania | Aedes aegypti

CON=C(C)c1nccnc1C(C)NC(=O)c1cc(C(F)(F)F)nc(C2(C#N)CC2)c1 (stereo not drawn) [I-131]
at least 75%: Anthonomus grandis | Heliothis virescens | Myzus persicae | Spodoptera eridania | Aedes aegypti

CC(=NOCCN(C)C)c1nccnc1C(C)NC(=O)c1cc(C(F)(F)F)cc(C(F)(F)F)c1 (stereo not drawn) [I-159]
at least 75%: Anthonomus grandis | Heliothis virescens | Myzus persicae | Spodoptera eridania | Aedes aegypti
